Publication PMC9837905

Key:
GST-HuMYB132 [1] = assay: competition with a labelled probe; settings: LightShift Chemiluminescent EMSA Kit, 50 ng GST-HuMYB132, 6% native PAGE, pH and temperature not stated, recombinant protein, protein details: N-terminal GST (pGEX-4T-1)
GST-HuMYB132 [2] = assay: EMSA; settings: unlabeled probe weakens the shift; LightShift Chemiluminescent EMSA Kit, 50 ng GST-HuMYB132, 6% native PAGE; pH and temperature not stated; recombinant protein; protein details: N-terminal GST (pGEX-4T-1); label: 3' biotin

Row | Sequence | binding result (GST-HuMYB132 [2]) | further results
1 | AAAGACTTAAAAAAAGTATAAAATTTTTTTGGACGAATGATGCACAAATT (double strand) [HuDODA1 mutant probe] |  | binding result (GST-HuMYB132 [1]; EMSA competitor against N3, no significant change): no binding
2 | AAAGACTTCAGTTGAGTATAAAAGGTTAGGGGACGAATGATGCACAAATT (double strand) [HuDODA1 promoter probe] | binds | 
3 | ATCCATCAAAAAAAAAAAAATTTTATAGAATAGAAAAAAAAACTCAGCTC (double strand) [HuCYP76AD1-1 mutant probe] |  | binding result (GST-HuMYB132 [1]; EMSA competitor against N2, no significant change): no binding
4 | ATCCATCAACCTAACCTAAATTTTATAGAATAGAATAACTGACTCAGCTC (double strand) [HuCYP76AD1-1 promoter probe] | binds | 
5 | GATCGATTCTCAGAAAAAAAAAAACCCGCCCTCCCATTTTCCCTCTCCTC (double strand) [HuADH1 mutant probe] |  | binding result (GST-HuMYB132 [1]; EMSA competitor against N1, no significant change): no binding
6 | GATCGATTCTCAGCAACCACCTAACCCGCCCTCCCATTTTCCCTCTCCTC (double strand) [HuADH1 promoter probe] | binds | 

The exact form of at least one protein or probe is not confirmed. For part of these data: No signal at the amounts used counts as a negative.
